The structures appear in SMILES notation. Numbers after ± are expanded uncertainties.

This passage reports mass density results from the NIST ThermoML archive (doi:10.1021/acs.jced.5b00944).

The conditions of this data set: 333.15 K; 100 kPa; Liquid; Vibrating tube method.

In the case of `O` [water], the mass density is reported as 983.19 ± 0.14 kg/m3.

The term mass density denotes the mass of a sample divided by its volume.
